About 5,500 (1.4%) of roughly 400,000 compounds were called active. The inconclusive results got no clear call from the source; some entries with a clear call stand among them for comparison. Calls follow the shape of the dose curve; as a rule, active = well fitted cell-killing curve with a large enough effect; inconclusive = small, poorly fitted or top-dose-only effect, or effect the other way; inactive = flat fitted curve, though single readings scatter. A potency beside an inconclusive call is a rough fit, not a confirmed value.
experiment: qHTS assay for MDR1-selective chemotherapeutics: Primary screen using the parental adenocarcinoma cell KB-3-1; details: KB-3-1 viability, CellTiter-Glo ATP luminescence, 72 h; activity change, negative = cytotoxic: at 46.1 µM (top of the series); also: nearly all actives have a fitted effect of over 60% in size
How it was run: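 KB-3-1 cells, DMEM (no phenol red) + 10% FBS; compound by pin transfer, 72 h, 37 °C. Readout: CellTiter-Glo luminescence after 10 min. Data normalized, curve-fitted.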
% is scaled to controls: 0 for no effect and ±100 for the full control effect; potency is read from the fitted curve at half-maximal effect.

Q: With `CCOC(=O)CSc1nnc(NC(=O)NC(C)C)s1` as the compound, how does the Potency read?
A: Its Potency is inconclusive: 32.6 µM [cytotoxic, partial curve, poor fit].

Q: For `COc1cc(C(=O)N2CCN(S(=O)(=O)c3ccc(C)cc3C)CC2)ccc1OCC(=O)N1CCOCC1`, which Potency is on record?
A: The Potency was inconclusive: 29.1 µM [rising, single point].

Q: Which Potency does the source give for `Cc1ccc(NS(=O)(=O)c2ccc(-c3cnc(C4CC4)o3)cc2)c(C)c1` here?
A: Its Potency is active: 2.06 µM.

Q: With `O=C(COc1cccc(NC(=O)c2cccs2)c1)c1ccc(F)cc1` as the compound, how does the Potency read?
A: Its Potency is “inactive”.

Q: For `Clc1ccc(-c2csc(Nc3cccnc3)n2)cc1`, which activity change, negative = cytotoxic is on record?
A: Its activity change, negative = cytotoxic is inconclusive: 69%.

Q: For `Cc1ccc(/C=C/C(=O)Nc2ccccc2C(N)=O)cc1`, which Potency is on record?
A: Its Potency is inconclusive: 18.4 µM [cytotoxic, single point].

Q: Which Potency does the source give for `COc1ccc2[nH]c3c(N4CCN(Cc5ccc6c(c5)OCO6)CC4)ncnc3c2c1` here?
A: The Potency was inconclusive: 29.1 µM [cytotoxic, single point].

Q: For `O=C(Nc1ncc(Cc2ccccc2)s1)C1CCN(C(=O)c2ccco2)CC1`, which Potency is on record?
A: The Potency was “inactive”.

Q: With `CC[n+]1ccc(/C=C/c2ccc(N(C)C)cc2)c2ccccc21` as the compound, how does the Potency read?
A: Its Potency is active: 1.16 µM.

Q: Which Potency does the source give for `O=C(Nc1ccccc1N1CCOCC1)C1=NN(c2ccccc2)C(=O)CC1` here?
A: Its Potency is inconclusive: 2.06 µM [rising, partial curve, poor fit].

Q: For `Cc1ccc(NC(=S)NNC(=O)Nc2ccccc2)cc1`, which Potency is on record?
A: The Potency was “inactive”.

Q: Which Potency does the source give for `Cc1cc(Cl)cc(C)c1OCCn1ccnc1` here?
A: The Potency was inconclusive: 9.2 µM [cytotoxic, partial curve, poor fit].

Q: For `O=C(CSc1n[nH]c(-c2ccccn2)n1)Nc1ccc(F)cc1`, which Potency is on record?
A: Its Potency is inconclusive: 3.26 µM [cytotoxic, full curve].

Q: Which Potency does the source give for `COc1ccc(F)cc1C(=O)C1CCCN(Cc2cccn2-c2cccnc2)C1` (configuration not stated) here?
A: The Potency was inconclusive: 5.17 µM [cytotoxic, partial curve, poor fit].

Q: For `COc1ccccc1CNC(=O)c1ccc(CS(=O)(=O)c2c(Cl)cccc2Cl)o1`, which Potency is on record?
A: Its Potency is “inactive”.

Q: Which Potency does the source give for `Cc1cccc(C(=O)CC(=O)c2cc(Cl)ccc2O)c1` here?
A: Its Potency is inconclusive: 23.1 µM [cytotoxic, partial curve].

Q: For `CCOC(=O)c1c(C)[nH]c(C)c1S(=O)(=O)N(C)CC(=O)Nc1cc(Cl)ccc1C`, which Potency is on record?
A: The Potency was “inactive”.

Q: Which Potency does the source give for `Cc1ccccc1OCCCCn1c(-c2ccc(Cl)cc2)nc2ccccc2c1=O` here?
A: Its Potency is “inactive”.

Q: Which Potency does the source give for `Cc1ccc(-n2c(SCC(=O)Nc3ncc(Cl)cc3Cl)nc3ccccc32)cc1` here?
A: The Potency was inconclusive: 9.2 µM [cytotoxic, partial curve, poor fit].

Q: For `CCOC(=O)c1ccc(N2C(=O)c3[nH]nc(-c4ccc(C)cc4)c3C2c2ccc(O)c(OCC)c2)cc1` (configuration not stated), which Potency is on record?
A: The Potency was inconclusive: 29.1 µM [cytotoxic, single point].

Q: For `C#CCn1c(=NC(=O)c2cc(-c3cccs3)nc3ccccc23)sc2cc(S(N)(=O)=O)ccc21`, which Potency is on record?
A: Its Potency is “inactive”.

Q: With `CCOc1ccc(C(C)NC(=O)c2ccc3c(c2)NC(=O)C(C)S3)cc1OCC` (configuration not stated) as the compound, how does the Potency read?
A: The Potency was inconclusive: 1.64 µM [cytotoxic, full curve].

Q: With `O=C(Nc1nc2ccc(Cl)cc2s1)c1ccc(N2CCCCC2)c([N+](=O)[O-])c1` as the compound, how does the Potency read?
A: The Potency was inconclusive: 18.4 µM [cytotoxic, partial curve, poor fit].

Q: For `CSc1nc2nccc(-c3ccc(Oc4ccccc4)cc3)n2n1`, which Potency is on record?
A: Its Potency is inconclusive: 16.4 µM [cytotoxic, single point].

Q: Which Potency does the source give for `COc1cc2c(=O)c(C(=O)c3ccc(C)c(C)c3)cn(Cc3ccccc3F)c2cc1OC` here?
A: The Potency was inconclusive: 20.6 µM [cytotoxic, partial curve].

Q: For `Cc1nc(NCC2CCCO2)c2nnn(Cc3ccccc3Cl)c2n1` (configuration not stated), which Potency is on record?
A: Its Potency is “inactive”.

Q: Which Potency does the source give for `COC(=O)[C@]12CCCCC=C1N(Cc1ccc(Cl)cc1Cl)C(=O)[C@H](CC(=O)N1CCN(C(=O)c3ccco3)CC1)C2` here?
A: The Potency was inconclusive: 20.6 µM [cytotoxic, single point].

Q: For `O=C(Nc1ccccc1)N1CCC(c2nc(-c3ccc(S(=O)(=O)N4CCOCC4)cc3)no2)CC1`, which Potency is on record?
A: Its Potency is active: 4.61 µM.

Q: For `CSCCC(NS(=O)(=O)c1ccc(C)cc1)C(=O)N1CCCC1` (configuration not stated), which Potency is on record?
A: Its Potency is inconclusive: 29.1 µM [rising, single point].

Q: With `Cc1ccc2c(=O)cc(C(=O)Nc3sc4c(c3C(=O)NCc3ccco3)CCC4)oc2c1` as the compound, how does the Potency read?
A: Its Potency is inconclusive: 29.1 µM [rising, single point].

Q: With `O=C1/C(=C/c2cccc([N+](=O)[O-])c2)CCc2ccccc21` as the compound, how does the Potency read?
A: The Potency was inconclusive: 0.206 µM [rising, full curve].

Q: With `O=[N+]([O-])c1ccccc1CN1CCN(Cc2c[nH]c3ccccc23)CC1` as the compound, how does the Potency read?
A: Its Potency is inconclusive: 29.1 µM [cytotoxic, single point].

Q: For `CC1=C(C(=O)OCc2ccc(C)cc2)C(c2ccccc2F)CC(=O)N1` (configuration not stated), which Potency is on record?
A: The Potency was “inactive”.

Q: For `CNC[C@H](CC1CCCCC1)NC[C@H](Cc1ccccc1)NCCC12CC3CC(CC(C3)C1)C2`, which Potency is on record?
A: Its Potency is inconclusive: 20.6 µM [cytotoxic, single point].

Q: Which Potency does the source give for `O=C(NCc1ccccc1F)C1CCN(c2nnc(-n3cccc3)s2)CC1` here?
A: The Potency was “inactive”.

Q: With `O=C(Cc1ccc(F)cc1)Nc1c(C(=O)N2CCN(c3ncccn3)CC2)oc2ccccc12` as the compound, how does the Potency read?
A: The Potency was inconclusive: 11.6 µM [rising, partial curve, poor fit].

Q: With `COc1cccc(CNc2nc3cc(-c4ccccc4CO)sc3c(=O)n2C)c1` as the compound, how does the Potency read?
A: Its Potency is inconclusive: 20.6 µM [cytotoxic, single point].

Q: For `CCCCCCNc1nc(NCc2ccco2)nc(OCC)n1`, which Potency is on record?
A: The Potency was inconclusive: 25.9 µM [cytotoxic, single point].

Q: With `Cn1cnnc1SCC(=O)Nc1ccc(Cl)cc1` as the compound, how does the Potency read?
A: The Potency was “inactive”.

Q: With `CCCN(Cc1cccs1)C(=O)Nc1cc(Cl)ccc1C` as the compound, how does the Potency read?
A: Its Potency is “inactive”.

Q: Which Potency does the source give for `CCN(CC)C(=O)[C@H]1C[C@H](CC(=O)NCc2cccc(C(F)(F)F)c2)C(=O)N2CCc3c([nH]c4cc(-c5ccco5)ccc34)[C@]12C` here?
A: The Potency was active: 14.6 µM.

Q: For `COc1ccc(NS(=O)(=O)c2cc(NC(=O)c3ccccc3)ccc2N2CCOCC2)cc1`, which Potency is on record?
A: Its Potency is inconclusive: 29.1 µM [cytotoxic, single point].

Q: Which Potency does the source give for `Cc1ccc(-c2c(=O)n(O)c3ccccc3[n+]2[O-])cc1` here?
A: The Potency was “inactive”.

Q: Which Potency does the source give for `Cc1cc(C)n(-c2nc3ccccc3n3c(C)nnc23)n1` here?
A: The Potency was inconclusive: 18.4 µM [rising, single point].

Q: For `Cc1c(C(=O)NCCS(=O)(=O)N2CCN(c3ccccc3F)CC2)cccc1[N+](=O)[O-]`, which Potency is on record?
A: Its Potency is active: 23.1 µM.

Q: Which Potency does the source give for `CNC(=O)c1c[nH]c2ccc(S(=O)(=O)Nc3cccc(SC)c3)cc2c1=O` here?
A: Its Potency is inconclusive: 23.1 µM [cytotoxic, single point].

Q: With `Clc1ccccc1OCCN1CCC(Cc2ccccc2)CC1` as the compound, how does the Potency read?
A: Its Potency is “inactive”.

Q: Which Potency does the source give for `C=CCn1c(SCc2ccccc2C#N)nnc1-c1cc(Br)ccc1O` here?
A: Its Potency is inconclusive: 20.6 µM [cytotoxic, single point].

Q: With `Cc1ccc(OCCSc2nnc(-c3cccs3)o2)cc1Cl` as the compound, how does the Potency read?
A: The Potency was inconclusive: 29.1 µM [cytotoxic, single point].

Q: With `O=C(Cn1c(=O)c2cccn2c2ccccc21)NCCCN1CCCCC1` as the compound, how does the Potency read?
A: Its Potency is “inactive”.

Q: With `CCOC(=O)c1ccc2nc(C)cc(Nc3cccc(C(=O)O)c3)c2c1` as the compound, how does the Potency read?
A: Its Potency is inconclusive: 29.1 µM [rising, partial curve, poor fit].

Q: Which Potency does the source give for `CCCCn1nnnc1C(c1cc2ccccc2o1)N1CCCCC1` (configuration not stated) here?
A: Its Potency is inconclusive: 23.1 µM [cytotoxic, single point].

Q: Which Potency does the source give for `CCn1c(=O)n(CC)c2cc(N3CCCC3)c(NC(=O)c3ccccc3F)cc21` here?
A: The Potency was inconclusive: 29.1 µM [cytotoxic, single point].

Q: For `COc1cccc(CNC(=O)C(=O)NCCC2CCCCN2S(=O)(=O)c2ccc(C)cc2)c1` (configuration not stated), which Potency is on record?
A: Its Potency is inconclusive: 23.1 µM [cytotoxic, single point].

Q: With `COc1ccc(-c2nc3cc(C(C)C)ccc3o2)cc1NC(=O)c1ccccc1[N+](=O)[O-]` as the compound, how does the Potency read?
A: Its Potency is inconclusive: 16.4 µM [cytotoxic, partial curve, poor fit].

Q: Which Potency does the source give for `COc1cc(CCN2C(=O)c3cccc4cccc(c34)C2=O)c(S(=O)(=O)N2CCC(C)CC2)cc1OC` here?
A: The Potency was “inactive”.

Q: Which Potency does the source give for `Cn1c(N)c(C(=O)COC(=O)c2ccccc2C(=O)c2ccc(Cl)c([N+](=O)[O-])c2)c(=O)n(C)c1=O` here?
A: The Potency was inconclusive: 29.1 µM [cytotoxic, single point].

Q: For `CN(C)S(=O)(=O)c1cccc(NC(=S)N/N=C/c2cccc(O)c2)c1`, which Potency is on record?
A: The Potency was “inactive”.

Q: For `CCOc1ccc(N(Cc2cc3ccc(C)cc3[nH]c2=O)S(=O)(=O)c2ccccc2)cc1`, which Potency is on record?
A: Its Potency is active: 16.4 µM.

Q: For `CCCCNC(=O)C1CC(c2ccc(C(F)(F)F)cc2)=NO1` (configuration not stated), which Potency is on record?
A: Its Potency is inconclusive: 16.4 µM [rising, partial curve, poor fit].

Q: For `CNC(=O)c1c(NC(=O)c2ccc(S(=O)(=O)N3CC(C)OC(C)C3)cc2)sc2c1CCN(C(C)C)C2` (configuration not stated), which Potency is on record?
A: Its Potency is inconclusive: 29.1 µM [rising, single point].

Q: With `C=CCOC(=O)c1[nH]c2c(c1C)C(=O)CC(c1cc(OC)c(OC)c(OC)c1)C2` (configuration not stated) as the compound, how does the Potency read?
A: Its Potency is inconclusive: 7.31 µM [cytotoxic, partial curve, poor fit].

Q: With `CC(C)Cc1ccc(S(=O)(=O)N2CCC(c3ccncc3)CC2)cc1` as the compound, how does the Potency read?
A: Its Potency is inconclusive: 11.6 µM [cytotoxic, partial curve, poor fit].

Q: Which Potency does the source give for `Cc1nc(N2CCCC2)ncc1C(=O)NCc1cccc(Cl)c1` here?
A: The Potency was “inactive”.

Q: With `CCOC(=O)c1sc(NC(C)=O)cc1C` as the compound, how does the Potency read?
A: The Potency was “inactive”.

Q: Which Potency does the source give for `COc1ccc(-n2nc([N+](=O)[O-])c(=NC3CCN(Cc4ccccc4)CC3)n2O)cc1` here?
A: The Potency was inconclusive: 29.1 µM [cytotoxic, single point].

Q: Which Potency does the source give for `COc1ccc(N(CC(=O)Nc2ccc3c(c2)OCO3)S(=O)(=O)c2ccccc2)cc1OC` here?
A: Its Potency is inconclusive: 16.4 µM [rising, partial curve, poor fit].

From PubChem BioAssay AID1347075 (National Center for Advancing Translational Sciences (NCATS), 2019)
